Among the data in publication PMC12533555 are binding values, retold here.

Protein sequences, listed by entry. Tags and fused reporters are not part of them.
UniProt Q61768: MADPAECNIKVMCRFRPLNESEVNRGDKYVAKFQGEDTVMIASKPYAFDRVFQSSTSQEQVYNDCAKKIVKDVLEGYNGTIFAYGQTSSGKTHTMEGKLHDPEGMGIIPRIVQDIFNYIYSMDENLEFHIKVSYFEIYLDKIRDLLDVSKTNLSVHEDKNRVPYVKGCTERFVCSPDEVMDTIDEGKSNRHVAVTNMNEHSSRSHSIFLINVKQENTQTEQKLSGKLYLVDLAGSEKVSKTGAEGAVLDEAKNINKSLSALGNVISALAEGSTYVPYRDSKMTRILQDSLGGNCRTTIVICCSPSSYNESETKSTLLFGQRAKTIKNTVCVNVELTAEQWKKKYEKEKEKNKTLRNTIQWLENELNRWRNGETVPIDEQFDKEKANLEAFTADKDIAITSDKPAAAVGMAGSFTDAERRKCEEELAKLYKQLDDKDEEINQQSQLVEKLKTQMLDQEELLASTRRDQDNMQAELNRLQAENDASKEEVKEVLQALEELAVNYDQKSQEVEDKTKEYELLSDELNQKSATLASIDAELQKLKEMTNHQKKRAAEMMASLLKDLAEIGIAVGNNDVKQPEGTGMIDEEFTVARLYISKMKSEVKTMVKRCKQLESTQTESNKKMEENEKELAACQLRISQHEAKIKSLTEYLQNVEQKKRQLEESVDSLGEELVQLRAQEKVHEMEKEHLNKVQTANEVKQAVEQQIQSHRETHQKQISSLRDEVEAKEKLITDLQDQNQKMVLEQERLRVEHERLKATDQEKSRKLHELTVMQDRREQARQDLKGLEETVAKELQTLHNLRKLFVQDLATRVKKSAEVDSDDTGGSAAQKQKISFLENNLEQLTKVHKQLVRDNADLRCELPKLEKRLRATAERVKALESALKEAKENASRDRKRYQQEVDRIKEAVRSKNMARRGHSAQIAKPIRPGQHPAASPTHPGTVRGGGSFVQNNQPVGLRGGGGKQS

No constants are given. Whether binding was seen depends on the method and setting. Binding seen in cells or lysates may run through a third protein. Some binding calls cover weakened binding; strength is not graded here.

This experiment concerns the target T1, GEF-H1 (ARHGEF2, also known as Lfc in mice) (mouse (endogenous in BMDCs)) (UniProt Q60875).
T1 sequence: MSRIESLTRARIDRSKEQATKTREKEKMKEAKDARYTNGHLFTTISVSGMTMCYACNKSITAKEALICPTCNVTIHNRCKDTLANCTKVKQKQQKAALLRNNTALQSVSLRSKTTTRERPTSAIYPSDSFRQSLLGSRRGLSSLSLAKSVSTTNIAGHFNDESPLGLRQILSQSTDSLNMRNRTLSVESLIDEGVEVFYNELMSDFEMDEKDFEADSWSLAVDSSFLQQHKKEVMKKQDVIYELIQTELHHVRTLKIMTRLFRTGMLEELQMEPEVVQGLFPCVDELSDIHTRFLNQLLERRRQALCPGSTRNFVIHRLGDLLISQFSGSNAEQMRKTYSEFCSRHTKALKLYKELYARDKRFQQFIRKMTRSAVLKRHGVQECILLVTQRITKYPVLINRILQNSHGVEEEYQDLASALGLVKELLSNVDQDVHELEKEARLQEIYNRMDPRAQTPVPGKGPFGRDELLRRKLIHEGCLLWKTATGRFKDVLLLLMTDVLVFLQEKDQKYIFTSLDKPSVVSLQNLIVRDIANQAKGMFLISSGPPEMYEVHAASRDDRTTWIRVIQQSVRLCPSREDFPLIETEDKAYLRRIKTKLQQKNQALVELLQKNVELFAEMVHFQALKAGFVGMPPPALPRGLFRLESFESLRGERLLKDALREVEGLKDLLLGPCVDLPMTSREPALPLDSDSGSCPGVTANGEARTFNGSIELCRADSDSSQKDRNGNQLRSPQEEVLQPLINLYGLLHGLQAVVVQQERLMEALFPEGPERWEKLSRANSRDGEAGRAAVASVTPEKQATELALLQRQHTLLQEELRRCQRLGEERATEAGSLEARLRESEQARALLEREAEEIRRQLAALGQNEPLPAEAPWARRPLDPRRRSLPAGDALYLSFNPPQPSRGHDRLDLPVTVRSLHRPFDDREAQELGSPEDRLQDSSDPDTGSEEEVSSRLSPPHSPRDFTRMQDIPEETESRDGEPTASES
Kind of experiment: co-IP; lysates of WT mouse BMDCs, untreated or treated with nocodazole or tubacin; IP with anti-GEF-H1, anti-Kif5b or isotype control, blots for GEF-H1 and Kif5b; lysis buffer 50 mM Hepes pH 7.4, 150 mM NaCl, 1 mM MgCl2, 1% Triton X-100, 10% glycerol.

Regarding “Kif5b (the heavy chain of kinesin-1) (from UniProt Q61768 1-963)”, the binding entry is listed as “binds”.
